The match of structure and compound is tentative.
Target: FKBP12 (Homo sapiens, UniProt P62942)
Assay: K1 test procedure: inhibition of peptidyl-prolyl isomerase (rotamase) activity of FKBP12, chymotrypsin-coupled assay
Assay type: biochemical
Settings: read-out: K1, apparent Ki, Table XLIII, Formulas XXV to XXIX

Sequences of proteins named here, by UniProt entry; tags and fusion partners are left off.
UniProt P62942, whole entry: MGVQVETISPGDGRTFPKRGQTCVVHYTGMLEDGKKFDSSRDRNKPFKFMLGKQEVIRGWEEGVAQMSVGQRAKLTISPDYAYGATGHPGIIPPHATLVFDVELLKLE

O=C(C(=O)N1CCC[C@H]1C(=O)OCCC(c1ccccc1)c1ccccc1)C1CCCCC1
Ki: 20 nM
